The results in this text go back to patent US7892350B2, “Sacrificial agents for fly ash concrete” (Boral Material Technologies Inc., priority 2003, dated 2011).

This series in a line: Air entrainment in fresh concrete (ASTM C 231-97).

On to `COCCO` [EGME, Ethylene glycol methyl ether], for which the Air reads like this: (Air 40 0.008, EGME 0.050 % CM, PCA cement, 25% B1 fly ash, LOI […]) 4.2%; (Air 40 0.008, EGME 0.050 % CM, PCA cement, no fly ash) 7.2%; (Air 40 0.008, EGME […] CM, PCA cement, 25% B1 fly ash, LOI […]) 4.0%.

Take `OCCOc1ccccc1` [EGPE, Ethylene glycol phenyl ether]: the Air runs as follows: (Air 40 0.003, EGPE 0.100 % CM, PCA cement, 25% B1 fly ash, LOI […]) 3.0%; (Air 40 0.006, EGPE 0.100 % CM, PCA cement, 25% B1 fly ash, LOI […]) 3.7%; (Air 40 0.007, EGPE 0.017 % CM, PCA cement, 25% B1 fly ash, LOI […]) 4.0%; (Air 40 0.007, EGPE 0.017 % CM, PCA cement, no fly ash) 8.7%; (Air 40 0.007, EGPE 0.100 % CM, PCA cement, 25% B1 fly ash, LOI […]) 5.7%; (Air 40 0.007, EGPE 0.100 % CM, PCA cement, no fly ash) 9.5%. The Air (Air 40 0.007, EGPE 0.200 % CM, PCA cement, 25% B1 fly ash, LOI […]) came out at 8.0%; the Air (Air 40 0.007, EGPE 0.200 % CM, PCA cement, no fly ash) is 10.0%; the Air (Air 40 0.008, EGPE 0.050 % CM, PCA cement, 25% B1 fly ash, LOI […]) was found to be 5%; the Air (Air 40 0.008, EGPE […] CM, AC 0.587 % CM, PCA cement) was found to be 7.9%; the Air (Air 40 0.008, EGPE […] CM, LW 0.107 % CM, PCA cement) turned out to be 9.6%; the Air (Air 40 0.008, EGPE […] CM, PCA cement, 25% B1 fly ash, LOI […]) stood at 4.4%. Further, the Air by setting is: (Air 40 0.008, EGPE […] CM, PCA cement, no fly ash) 6.2%; (Air 40 0.009, EGPE 0.100 % CM, PCA cement, 25% B1 fly ash, LOI […]) 4.5%; (Table 23: Air 40 0.003, EGPE 0.050 % CM, PCA cement, 25% B1 fly ash, LOI […]) 2.9%; (Table 23: Air 40 0.003, EGPE 0.100 % CM, PCA cement, 25% B1 fly ash, LOI […]) 2.7%; (Table 23: Air 40 0.003, EGPE 0.200 % CM, PCA cement, 25% B1 fly ash, LOI […]) 5.3%.

For “Sodium Di-isopropopyl naphthalene sulfonate [ND]”, the Air turned out to be 3.8% (Air 40 0.005, ND 0.0016 % CM, PCC cement, 25% H2 fly ash, LOI 3.6%) and 2.5% (Air 40 0.005, ND 0.0016 % CM, PCC cement, 25% H2 fly ash, LOI […]).
